Measured values taken from article PMC7772355.
Results are given in words; binding and its absence hold for the method and conditions named. In cells and extracts the contact can be indirect. Some entries that bind do so weakly or less than the wild type.

Target: membrane NEU1 (tagged copies NEU1-HA and NEU1-Flag) of the dimerisation experiment (human) (UniProt Q99519)
Test: co-IP; crude membranes of COS-7 cells transfected with NEU1 and PPCA, solubilised in 1% CHAPS with or without peptides; anti-Flag immunoprecipitation by the methods; NEU1 dimers seen as bands of 70-72 kDa on Western blot with anti-HA

With “membrane NEU1 (tagged copies NEU1-HA and NEU1-Flag) of the dimerisation experiment (from UniProt Q99519 48-415) (enzyme)” the binding was “binds”.
